Amino acid sequences for entries named in this document (tags omitted). A change or cut given only in a name is not applied to a line headed by its entry.
UniProt Q15814: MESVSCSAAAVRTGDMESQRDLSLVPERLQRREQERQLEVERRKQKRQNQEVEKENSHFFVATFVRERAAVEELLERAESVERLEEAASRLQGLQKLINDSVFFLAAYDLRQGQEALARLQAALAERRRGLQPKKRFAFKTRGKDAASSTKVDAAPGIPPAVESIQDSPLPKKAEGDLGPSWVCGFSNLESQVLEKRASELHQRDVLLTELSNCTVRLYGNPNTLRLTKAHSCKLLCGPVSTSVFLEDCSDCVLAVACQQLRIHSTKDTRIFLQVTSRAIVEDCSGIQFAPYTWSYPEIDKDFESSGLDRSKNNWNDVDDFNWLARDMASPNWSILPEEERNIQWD
UniProt Q2VPB7: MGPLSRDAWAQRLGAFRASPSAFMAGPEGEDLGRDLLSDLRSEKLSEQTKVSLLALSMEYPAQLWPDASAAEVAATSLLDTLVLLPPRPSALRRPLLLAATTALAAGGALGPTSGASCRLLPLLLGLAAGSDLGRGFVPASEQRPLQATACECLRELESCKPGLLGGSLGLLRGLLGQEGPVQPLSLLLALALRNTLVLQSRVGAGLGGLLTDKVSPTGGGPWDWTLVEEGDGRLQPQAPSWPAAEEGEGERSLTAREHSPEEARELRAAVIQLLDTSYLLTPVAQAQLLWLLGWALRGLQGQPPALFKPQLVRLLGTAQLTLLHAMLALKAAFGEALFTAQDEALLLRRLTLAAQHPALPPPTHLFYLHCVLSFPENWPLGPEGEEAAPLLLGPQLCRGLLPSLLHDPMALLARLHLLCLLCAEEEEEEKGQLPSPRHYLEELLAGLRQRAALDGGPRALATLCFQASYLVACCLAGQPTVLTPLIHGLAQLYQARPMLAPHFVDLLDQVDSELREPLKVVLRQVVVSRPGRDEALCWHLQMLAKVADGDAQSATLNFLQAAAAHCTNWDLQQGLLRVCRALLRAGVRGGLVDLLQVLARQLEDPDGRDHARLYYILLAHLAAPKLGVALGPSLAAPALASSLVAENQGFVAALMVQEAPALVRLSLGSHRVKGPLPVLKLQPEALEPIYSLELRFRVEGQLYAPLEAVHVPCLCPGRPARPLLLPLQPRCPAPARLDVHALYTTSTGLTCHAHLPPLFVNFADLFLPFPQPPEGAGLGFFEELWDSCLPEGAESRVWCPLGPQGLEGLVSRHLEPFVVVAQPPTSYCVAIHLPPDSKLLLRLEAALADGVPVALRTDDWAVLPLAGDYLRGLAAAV
UniProt Q2NL82: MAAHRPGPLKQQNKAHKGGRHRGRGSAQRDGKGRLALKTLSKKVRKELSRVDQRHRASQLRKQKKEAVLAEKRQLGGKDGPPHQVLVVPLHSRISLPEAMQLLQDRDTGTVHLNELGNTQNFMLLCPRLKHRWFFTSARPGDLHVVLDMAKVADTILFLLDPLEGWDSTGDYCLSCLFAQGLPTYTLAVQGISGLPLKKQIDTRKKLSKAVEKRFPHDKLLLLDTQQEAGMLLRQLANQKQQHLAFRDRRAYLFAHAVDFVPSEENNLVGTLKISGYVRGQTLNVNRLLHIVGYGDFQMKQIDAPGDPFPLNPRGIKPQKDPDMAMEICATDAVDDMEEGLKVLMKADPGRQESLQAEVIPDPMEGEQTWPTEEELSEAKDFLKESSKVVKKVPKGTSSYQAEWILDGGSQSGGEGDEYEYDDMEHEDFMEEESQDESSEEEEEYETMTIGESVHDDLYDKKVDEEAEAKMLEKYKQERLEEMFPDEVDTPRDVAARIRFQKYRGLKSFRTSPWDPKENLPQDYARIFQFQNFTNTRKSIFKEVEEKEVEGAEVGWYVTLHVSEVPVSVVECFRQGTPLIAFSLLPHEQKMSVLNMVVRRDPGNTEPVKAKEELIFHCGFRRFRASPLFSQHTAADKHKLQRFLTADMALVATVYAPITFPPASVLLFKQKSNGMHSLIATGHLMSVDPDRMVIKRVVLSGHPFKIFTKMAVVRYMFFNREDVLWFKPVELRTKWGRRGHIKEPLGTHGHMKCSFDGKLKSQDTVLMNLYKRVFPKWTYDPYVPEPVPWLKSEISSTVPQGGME
UniProt Q15291, whole entry: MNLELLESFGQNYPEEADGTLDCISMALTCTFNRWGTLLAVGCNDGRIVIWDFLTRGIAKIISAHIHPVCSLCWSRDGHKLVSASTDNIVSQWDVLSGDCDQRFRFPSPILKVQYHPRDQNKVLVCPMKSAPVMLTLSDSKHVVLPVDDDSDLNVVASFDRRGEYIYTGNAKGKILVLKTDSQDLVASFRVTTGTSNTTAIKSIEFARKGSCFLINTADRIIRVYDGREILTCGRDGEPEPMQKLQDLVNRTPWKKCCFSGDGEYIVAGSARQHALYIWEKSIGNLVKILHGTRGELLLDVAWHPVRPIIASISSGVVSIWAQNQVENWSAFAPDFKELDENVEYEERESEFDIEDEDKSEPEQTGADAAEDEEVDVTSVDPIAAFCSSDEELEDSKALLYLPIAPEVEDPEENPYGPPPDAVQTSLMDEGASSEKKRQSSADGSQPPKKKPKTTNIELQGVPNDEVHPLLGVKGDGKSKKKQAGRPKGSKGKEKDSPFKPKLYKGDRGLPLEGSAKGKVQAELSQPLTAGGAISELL
UniProt Q16822, whole entry: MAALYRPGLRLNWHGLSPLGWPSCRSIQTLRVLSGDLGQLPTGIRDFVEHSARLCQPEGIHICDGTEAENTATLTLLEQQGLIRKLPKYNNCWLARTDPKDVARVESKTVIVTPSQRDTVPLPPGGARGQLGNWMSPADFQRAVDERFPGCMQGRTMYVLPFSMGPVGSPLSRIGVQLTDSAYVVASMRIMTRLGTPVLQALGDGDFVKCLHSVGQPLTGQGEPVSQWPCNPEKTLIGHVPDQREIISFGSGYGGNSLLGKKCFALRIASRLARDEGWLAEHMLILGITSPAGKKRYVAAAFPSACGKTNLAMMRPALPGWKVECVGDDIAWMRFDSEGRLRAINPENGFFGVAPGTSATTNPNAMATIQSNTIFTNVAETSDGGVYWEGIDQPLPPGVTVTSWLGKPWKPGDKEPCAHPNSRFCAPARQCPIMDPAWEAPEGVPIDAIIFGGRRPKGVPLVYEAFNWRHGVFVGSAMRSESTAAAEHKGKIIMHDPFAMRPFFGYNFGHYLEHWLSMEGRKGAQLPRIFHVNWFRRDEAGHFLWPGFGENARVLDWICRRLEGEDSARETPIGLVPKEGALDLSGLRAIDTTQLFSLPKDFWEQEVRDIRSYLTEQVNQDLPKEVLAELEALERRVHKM
UniProt Q16763: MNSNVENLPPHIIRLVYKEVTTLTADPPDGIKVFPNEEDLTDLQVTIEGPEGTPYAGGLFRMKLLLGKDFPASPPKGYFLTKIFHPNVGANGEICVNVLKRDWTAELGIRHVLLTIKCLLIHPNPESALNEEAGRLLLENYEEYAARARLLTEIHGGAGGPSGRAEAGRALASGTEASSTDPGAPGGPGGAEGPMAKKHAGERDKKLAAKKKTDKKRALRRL
UniProt Q15796, whole entry: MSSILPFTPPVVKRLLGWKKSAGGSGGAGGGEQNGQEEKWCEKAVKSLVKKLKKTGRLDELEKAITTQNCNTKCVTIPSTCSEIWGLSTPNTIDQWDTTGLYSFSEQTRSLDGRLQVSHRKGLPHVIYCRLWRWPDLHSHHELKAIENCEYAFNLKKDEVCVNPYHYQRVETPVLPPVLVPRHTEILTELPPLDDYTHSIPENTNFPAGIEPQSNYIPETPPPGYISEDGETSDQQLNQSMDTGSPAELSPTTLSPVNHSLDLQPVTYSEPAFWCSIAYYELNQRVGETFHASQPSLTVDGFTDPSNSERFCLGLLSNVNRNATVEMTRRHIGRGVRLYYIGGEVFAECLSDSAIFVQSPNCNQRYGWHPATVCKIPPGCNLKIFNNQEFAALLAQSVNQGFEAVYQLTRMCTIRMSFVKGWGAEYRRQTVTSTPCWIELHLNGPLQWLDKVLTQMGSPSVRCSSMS
UniProt Q2PPJ7: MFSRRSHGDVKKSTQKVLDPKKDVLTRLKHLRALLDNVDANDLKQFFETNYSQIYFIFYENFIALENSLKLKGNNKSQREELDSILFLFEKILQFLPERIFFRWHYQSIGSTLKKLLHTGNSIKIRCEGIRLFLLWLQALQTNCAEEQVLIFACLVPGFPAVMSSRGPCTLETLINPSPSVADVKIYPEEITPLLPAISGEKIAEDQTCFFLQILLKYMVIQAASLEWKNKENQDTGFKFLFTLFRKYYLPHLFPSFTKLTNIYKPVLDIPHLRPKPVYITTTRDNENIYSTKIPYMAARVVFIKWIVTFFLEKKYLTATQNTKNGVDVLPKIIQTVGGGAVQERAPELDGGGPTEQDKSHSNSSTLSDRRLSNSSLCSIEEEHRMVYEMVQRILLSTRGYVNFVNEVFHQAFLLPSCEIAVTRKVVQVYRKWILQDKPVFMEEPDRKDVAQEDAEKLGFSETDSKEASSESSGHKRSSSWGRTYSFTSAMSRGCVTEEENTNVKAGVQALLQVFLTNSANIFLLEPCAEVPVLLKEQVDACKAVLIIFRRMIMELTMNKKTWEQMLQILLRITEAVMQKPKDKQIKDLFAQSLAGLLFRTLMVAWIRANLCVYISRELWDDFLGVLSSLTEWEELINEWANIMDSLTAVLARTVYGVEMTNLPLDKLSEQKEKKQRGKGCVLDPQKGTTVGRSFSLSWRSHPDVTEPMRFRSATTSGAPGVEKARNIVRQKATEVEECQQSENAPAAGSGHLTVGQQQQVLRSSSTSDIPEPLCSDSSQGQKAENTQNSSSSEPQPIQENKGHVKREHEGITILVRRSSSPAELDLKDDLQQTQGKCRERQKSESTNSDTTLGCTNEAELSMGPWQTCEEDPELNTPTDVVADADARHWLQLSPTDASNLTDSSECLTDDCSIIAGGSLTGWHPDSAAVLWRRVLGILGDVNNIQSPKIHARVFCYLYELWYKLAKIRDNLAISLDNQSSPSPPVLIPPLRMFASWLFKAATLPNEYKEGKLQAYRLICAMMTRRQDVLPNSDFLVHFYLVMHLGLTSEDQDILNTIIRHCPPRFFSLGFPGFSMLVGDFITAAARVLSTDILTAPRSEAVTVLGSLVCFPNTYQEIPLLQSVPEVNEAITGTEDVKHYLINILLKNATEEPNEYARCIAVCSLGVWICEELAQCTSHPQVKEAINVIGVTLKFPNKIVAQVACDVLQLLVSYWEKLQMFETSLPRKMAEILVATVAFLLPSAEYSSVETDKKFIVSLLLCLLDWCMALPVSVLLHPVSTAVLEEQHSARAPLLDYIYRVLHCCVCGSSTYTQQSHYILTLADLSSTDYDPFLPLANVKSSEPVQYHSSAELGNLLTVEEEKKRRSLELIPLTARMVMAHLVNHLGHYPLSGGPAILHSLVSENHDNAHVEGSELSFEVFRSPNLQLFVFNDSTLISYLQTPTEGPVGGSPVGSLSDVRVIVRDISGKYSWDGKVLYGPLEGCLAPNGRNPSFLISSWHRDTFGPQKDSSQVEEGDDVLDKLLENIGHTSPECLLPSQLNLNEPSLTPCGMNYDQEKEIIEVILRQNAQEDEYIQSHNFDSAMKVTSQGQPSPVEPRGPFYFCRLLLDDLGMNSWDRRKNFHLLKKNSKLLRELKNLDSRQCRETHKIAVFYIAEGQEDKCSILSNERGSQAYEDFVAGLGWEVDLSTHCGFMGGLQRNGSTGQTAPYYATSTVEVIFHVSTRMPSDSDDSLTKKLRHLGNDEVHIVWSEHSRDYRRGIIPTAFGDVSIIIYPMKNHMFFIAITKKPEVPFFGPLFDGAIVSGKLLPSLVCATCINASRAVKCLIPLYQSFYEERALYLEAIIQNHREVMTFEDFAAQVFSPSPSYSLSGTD

The other results are listed elsewhere or left out. Most values lie at the level of the controls, where differences are scatter.
These targets were tested with Cc1nc(Nc2ncc(C(=O)Nc3c(C)cccc3Cl)s2)cc(N2CCN(CCO)CC2)n1 [dasatinib] (assay: log2 fold change of tryptic peptide abundance, ligand vs vehicle (limited proteolysis) (log2 ratio); higher = more trypsin-susceptible (destabilized)). Conditions: ligand concentration: 5 uM; sample: K562 cleared lysate.
In the case of “TBCC (peptide sequence: GKDAASSTK, peptide start residue: 143) (UniProt Q15814)”, the log2 fold change is reported as 1.25. Target “UniProt Q2TAY7 (peptide sequence: GVTCLSFSK, peptide start residue: 309)” has a log2 fold change of 0.563. For “AP5B1 (peptide sequence: VGAGLGGLLTDK, peptide start residue: 203) (UniProt Q2VPB7)”, the log2 fold change was -0.299. In the case of “TSR1 (peptide sequence: AKEELIFHCGFRR, peptide start residue: 610) (UniProt Q2NL82)”, the log2 fold change is reported as 0.425. Target “RBBP5 (peptide sequence: TDSQDLVASFR, peptide start residue: 180) (UniProt Q15291)” has a log2 fold change of -0.451. “PCK2 (peptide sequence: EGALDLSGLR, peptide start residue: 579) (UniProt Q16822)” was tested, and the log2 fold change was -0.155. Target “UBE2S (peptide sequence: LLLGKDFPASPPK, peptide start residue: 64) (UniProt Q16763)” has a log2 fold change of -0.175. “SMAD2 (peptide sequence: WPDLHSHHELK, peptide start residue: 134) (UniProt Q15796)” was tested, and the log2 fold change was -0.14. Work on “UniProt Q2PPJ7 (peptide sequence: SHPDVTEPMR, peptide start residue: 701)” yielded a log2 fold change of 0.23.
